In publication PMC12040169 (PLOS Biology, 2025):
Some of the results follow.

system: T1, CTL2-GFP (C. trachomatis L2/434/Bu, GFP-expressing); design: species or system HeLa; Intracellular C. trachomatis growth in HeLa cells, bulk GFP fluorescence relative to DMSO; details: bulk GFP, single well; 28.5 h, 10 µM; inhibitor
T1 construct: L2/434/Bu, GFP-expressing

| Compound | % of control remaining |
| --- | --- |
| Cc1ccc(S(=O)(=O)c2ccc(C)c(S(=O)(=O)N3CCC(C)CC3)c2)cc1S(=O)(=O)N1CCC(C)CC1 [CBK261743] | 99.8852% |
| O=C1COc2ccc(C(=O)CSc3nnc(C4CC4)n3C3CC3)cc2N1 [CBK297110] | 145.364% |
| O=S(=O)(N1CCCCC1)N1CCN(CC(O)COc2ccc(-c3ccccc3)cc2)CC1 (stereo not shown) [CBK269370] | 134.285% |
| CC1CCc2nn(CCNC(=O)c3ccco3)c(=O)cc2C1 (stereo not shown) [CBK284481] | 117.066% |
| c1cc(-c2nccnc2Oc2ccc3c(c2)OCO3)ccn1 [CBK106726] | 117.277% |
| Cc1ccc(Cl)c(OC(C)C(=O)N(CCCO)Cc2ccncc2)c1 (stereo not shown) [CBK305432] | 99.3088% |
| CC(C)CNc1nc(-c2cccc(N(C)C)c2)cnc1N [CBK063870] | 135.949% |
| O=C(NC(c1ccc(Cl)cc1)c1cnccn1)C1CCN(C(=O)c2ccccc2)CC1 (stereo not shown) [CBK059634] | 144.102% |
| O=C(NCc1nc(-c2ccccc2)no1)C(c1cccs1)c1cccs1 [CBK286340] | 96.9089% |
| c1ccc(Oc2ccc(Nc3ccc(-c4cccc5cccnc45)cn3)cc2)cc1 [CBK037643] | 94.194% |
| NCCCNc1ccc(-c2ccco2)cn1 [CBK036911] | 162.156% |
| CCCNC(=O)C1(Cc2ccccc2-c2ccccc2)CCN(C(=O)c2ccccc2)CC1 [CBK286275] | 131.558% |
| CS(=O)(=O)CCC(C(=O)O)N1C(=O)c2ccc(C(=O)O)cc2C1=O (stereo not shown) [CBK265719] | 179.154% |
| CC(C)n1nccc1C(=O)NC1CCN(Cc2cccc(F)c2)CC1 [CBK282596] | 122.938% |
| CCc1c[nH]c(SCC(=O)c2cc(C)n(C3CCS(=O)(=O)C3)c2C)n1 (stereo not shown) [CBK306486] | 122.848% |
| COc1cc2c(cc1OC)C(CCCC#N)=[N+](C)C(C)(C)C2 [CBK008807I] | 128.04% |
| CCOc1ccc2nc(NC(=O)c3nc(SCc4ccccc4)ncc3Cl)sc2c1 [CBK269109] | 135.793% |
| O=C(O)c1cccc(N2C(=O)c3cccc4c(Cl)ccc(c34)C2=O)c1 [CBK299836] | 134.436% |
| COCCCNC(=O)C1CCN(c2nc3c(-c4cccc(C)c4)csc3c(=O)[nH]2)CC1 [CBK215630] | 138.93% |
| Cc1cc(NC(=O)CN2CCN(Cc3ccc4c(c3)CCO4)CC2)on1 [CBK305610] | 142.737% |
| O=C1N=C(NC2CCCCCC2)SC1CC(=O)N1CCOC12CCCCC2 (stereo not shown) [CBK067355] | 137.829% |
| CCN(CC)C(=O)CN1CCCN(c2cc(OCCN3C(=O)CCC3=O)ncn2)CC1 [CBK083266T] | 140.927% |
| CN(C)c1ncccc1OC1CCN(c2nnc(C(F)(F)F)s2)C1 (stereo not shown) [CBK304789] | 142.157% |
| O=C(CCCOc1ccc(Cl)cc1)n1ccn(CCc2cccs2)c1=O [CBK106614] | 125.182% |
| C=CCn1c(Cc2csc(NC(=O)c3ccc(C)cc3)n2)n[nH]c1=S [CBK295292] | 183.115% |

An excerpt of these results, comma-delimited:
Compound,% of control remaining
O=C1COc2ccc(C(=O)CSc3nnc(C4CC4)n3C3CC3)cc2N1 [CBK297110],145.364%
CN(C)c1ncccc1OC1CCN(c2nnc(C(F)(F)F)s2)C1 (stereo not shown) [CBK304789],142.157%

(continued)

| Compound | % of control remaining |
| --- | --- |
| Cc1cccc(-c2ccc(CC3(C(=O)NC(C)C)CCN(C(=O)C4CC4)CC3)cc2)c1 [CBK285757] | 126.857% |
| COc1ccc(-c2n[nH]c(=S)n2CCC(=O)NCCc2cc(C)n(-c3ccccc3)c2C)cc1 [CBK295632] | 116.152% |
| CC(Cn1cncn1)C(=O)N1CCc2sccc2C1C (stereo not shown) [CBK282080] | 125.674% |
| COc1ccccc1-n1nc(-c2ccncc2)nc1C(C)NS(C)(=O)=O (stereo not shown) [CBK306868] | 87.3675% |
| O=c1c2ccccc2nc2n1CCN(Cc1ccccc1)CC2 [CBK284790] | 111.854% |
| CS(=O)(=O)NC1CCN(C2CCc3c(Cl)cccc32)CC1 (stereo not shown) [CBK305252] | 138.33% |
| O=[N+]([O-])c1nn(-c2ccc3c(c2)OCCO3)[n+]([O-])c1NCCN1CCN(c2ccccc2F)CC1 [CBK268314] | 52.4315% |
| COc1cc(CNCc2ccc(F)cc2)cc(Cl)c1OCC(N)=O [CBK270256C] | 108.967% |
| CC(C)C(=O)Nc1nc2c([nH]c(=O)n2[C@H]2C[C@@H](O)[C@@H](CO)O2)c(=O)[nH]1 [CBK201202] | 165.501% |
| CN1CCN(CCC(=O)N/N=C/c2c[nH]c3ccccc23)CC1 [CBK261502] | 106.91% |
| COc1ccccc1N1CCN(C(=O)Nc2cccnc2)CC1 [CBK155617] | 91.8884% |
| Cc1cnc2[nH]c(C3CCCN(C(=O)c4cn(C)nc4C)C3)cc2c1 (stereo not shown) [CBK285170] | 80.7465% |
| COc1ccc(CCNC(=S)NN2CCN(C)CC2)cc1OC [CBK266884] | 130.816% |
| O=C1NC(=O)C(CCCCN2CCCc3ccccc32)N1 (stereo not shown) [CBK143965] | 90.8597% |
| c1ccc(OCCN2CCC(Oc3cncc(OCCN4CCOCC4)n3)C2)cc1 (stereo not shown) [CBK084499] | 111.086% |
| COc1ccc(C(=O)C2=C(O)C(=O)N(Cc3cccnc3)C2c2cccc(OC)c2OC)cc1C (stereo not shown) [CBK264906] | 135.82% |
| O=C(CSc1ccc2nnc(-c3ccccc3)n2n1)NCc1ccco1 [CBK287514] | 135.487% |
| COc1cc(CNc2ccccc2Cl)ccc1OCC(=O)O [CBK287045] | 138.594% |
| O=[N+]([O-])c1ccc(Sc2cccc(F)c2)nc1 [CBK002905] | 106.427% |
| Cc1cccc(C)c1NC(=O)c1nccnc1C(=O)O [CBK260915] | 108.11% |
| COc1ccc(CNC(=O)c2sc3nc4c(c(C(F)(F)F)c3c2N)CCC4)cc1OC [CBK074568] | 91.8265% |
| CCn1cc(C(=O)N2CCOC(C(=O)O)C2)c(=O)c2ccc(C)nc21 (stereo not shown) [CBK307165] | 124.817% |
| Cc1cc(Cl)c(S(=O)(=O)Nc2ccc(C#N)cc2)cc1OCC(N)=O [CBK266560] | 109.099% |
| O=C(CN1CCCC1Cn1cccn1)N1CCCc2ccccc21 (stereo not shown) [CBK281971] | 92.4732% |
